This is one part of the list.
Assays:
Experiment in all cases: glycan array binding signal (z-score within array); higher = stronger binding
Settings in all cases: glycan notation: IUPAC condensed, linker removed
[1] = target: Man(a1-2)Man(a1-3)[Man(a1-6)]Man(a1-6)[Man(a1-2)Man(a1-3)]Man(b1-4)GlcNAc(b1-4)GlcNAc
Procedure, shortened: (§1)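 Glycan array binding is given as a within-array Z-score, which can be read as non-binding when negative. The arrays, 3228 of them, came from the Consortium for Functional Glycomics database and were retained only where the protein sequence was available. Z-scores were averaged across arrays of the same protein sequence at different concentrations or buffers and across linkers.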

[2] = target: Man(a1-2)Man(a1-6)[Man(a1-3)]Man(a1-6)[Man(a1-2)Man(a1-2)Man(a1-3)]Man
Procedure, shortened: as §1

[3] = target: Man(a1-2)Man(a1-6)[Man(a1-3)]Man(a1-6)[Man(a1-2)Man(a1-2)Man(a1-3)]Man(b1-4)GlcNAc(b1-4)GlcNAc
Procedure, shortened: as §1

Man(a1-3)[Man(a1-6)]Man = target: Man(a1-3)[Man(a1-6)]Man
Procedure, shortened: as §1

[4] = target: Man(a1-3)[Man(a1-6)]Man(a1-6)[Man(a1-2)Man(a1-3)]Man(b1-4)GlcNAc(b1-4)GlcNAc
Procedure, shortened: as §1

[5] = target: Man(a1-3)[Man(a1-6)]Man(a1-6)[Man(a1-3)]Man
Procedure, shortened: as §1

[6] = target: Man(a1-3)[Man(a1-6)]Man(a1-6)[Man(a1-3)]Man(b1-4)GlcNAc(b1-4)GlcNAc
Procedure, shortened: as §1

[7] = target: Man(a1-3)[Man(a1-6)]Man(b1-4)GlcNAc(b1-4)GlcNAc
Procedure, shortened: as §1

Man(a1-6)Man = target: Man(a1-6)Man
Procedure, shortened: as §1

Man(b1-4)GlcNAc = target: Man(b1-4)GlcNAc
Procedure, shortened: as §1

Neu5Ac(a2-3)Gal = target: Neu5Ac(a2-3)Gal
Procedure, shortened: as §1

[8] = target: Neu5Ac(a2-3)Gal(b1-3)GalNAc
Procedure, shortened: as §1

[9] = target: Neu5Ac(a2-3)Gal(b1-3)GalNAc(b1-3)Gal(a1-4)Gal(b1-4)Glc
Procedure, shortened: as §1

[10] = target: Neu5Ac(a2-3)Gal(b1-3)GalNAc(b1-4)[Neu5Ac(a2-3)]Gal(b1-4)Glc
Procedure, shortened: as §1

[11] = target: Neu5Ac(a2-3)Gal(b1-3)GalNAc(b1-4)[Neu5Ac(a2-8)Neu5Ac(a2-3)]Gal(b1-4)Glc
Procedure, shortened: as §1

[12] = target: Neu5Ac(a2-3)Gal(b1-3)GalNAc6S
Procedure, shortened: as §1

[13] = target: Neu5Ac(a2-3)Gal(b1-3)GlcNAc
Procedure, shortened: as §1

[14] = target: Neu5Ac(a2-3)Gal(b1-3)GlcNAc(b1-3)Gal(b1-3)GlcNAc
Procedure, shortened: as §1

[15] = target: Neu5Ac(a2-3)Gal(b1-3)GlcNAc(b1-3)Gal(b1-4)GlcNAc
Procedure, shortened: as §1

[16] = target: Neu5Ac(a2-3)Gal(b1-3)GlcNAc(b1-3)GalNAc
Procedure, shortened: as §1

[17] = target: Neu5Ac(a2-3)Gal(b1-3)GlcNAc6S
Procedure, shortened: as §1

[18] = target: Neu5Ac(a2-3)Gal(b1-3)[Fuc(a1-4)]GlcNAc
Procedure, shortened: as §1

[19] = target: Neu5Ac(a2-3)Gal(b1-3)[Fuc(a1-4)]GlcNAc(b1-3)Gal(b1-3)[Fuc(a1-4)]GlcNAc
Procedure, shortened: as §1

[20] = target: Neu5Ac(a2-3)Gal(b1-3)[Fuc(a1-4)]GlcNAc(b1-3)Gal(b1-4)[Fuc(a1-3)]GlcNAc
Procedure, shortened: as §1

[21] = target: Neu5Ac(a2-3)Gal(b1-3)[Neu5Ac(a2-3)Gal(b1-4)]GlcNAc
Procedure, shortened: as §1

B1: Layilin (Mus musculus), Q8C351 (protein)
chain: MQPGAALQAMLLAVLLAKPRDSKGRLLSASDLDPRGGQLVCRGGTRRPCYKVIYFHDAFQRLNFEEAKETCMEDGGQLVSIETEDEQRLIEKFIENLLASDGDFWIGLKRLEEKQSNNTACQDLYAWTDGSTSQFRNWYVDEPSCGSEVCVVMYHQPSAPPGIGGSYMFQWNDDRCNMKNNFICKYHDDKPSTTPSIWPGGEATEPATPLLPEETQKEDTKETFKERREAALNLAYILIPSIPLFLLLVVTSAVCWVWICRRKREQTDPSTKEQHTIWPTPRQENSPNLDVYNVIRKQSEADLAEPRPDLKNISFRVCSGEAMPDDMSCDYENIAVNPSESGFVTLASMESGFVTNDIYEFSPDRMGRSKESGWVENEIYY
[1]
  glycan array binding signal (z-score): -0.059
[2]
  glycan array binding signal (z-score): -0.399
[3]
  glycan array binding signal (z-score): -0.764
Man(a1-3)[Man(a1-6)]Man
  glycan array binding signal (z-score): -0.128
[4]
  glycan array binding signal (z-score): -0.624
[5]
  glycan array binding signal (z-score): -0.713
[6]
  glycan array binding signal (z-score): 0.072
[7]
  glycan array binding signal (z-score): -0.043
Man(a1-6)Man
  glycan array binding signal (z-score): -0.763
Man(b1-4)GlcNAc
  glycan array binding signal (z-score): -0.401
Neu5Ac(a2-3)Gal
  glycan array binding signal (z-score): -0.557
[8]
  glycan array binding signal (z-score): -0.199
[9]
  glycan array binding signal (z-score): -1.1
[10]
  glycan array binding signal (z-score): -0.717
[11]
  glycan array binding signal (z-score): 0.054
[12]
  glycan array binding signal (z-score): 1.1
[13]
  glycan array binding signal (z-score): 0.72
[14]
  glycan array binding signal (z-score): -0.153
[15]
  glycan array binding signal (z-score): 0.14
[16]
  glycan array binding signal (z-score): -0.44
[17]
  glycan array binding signal (z-score): -0.283
[18]
  glycan array binding signal (z-score): -1.22
[19]
  glycan array binding signal (z-score): -0.596
[20]
  glycan array binding signal (z-score): -1.13
[21]
  glycan array binding signal (z-score): 0.018
